Article PMC11493973
No constants are given. Whether binding was seen depends on the method and setting. Binding seen in cells or lysates may run through a third protein. Some binding calls cover weakened binding; strength is not graded here.

Chains of the proteins cited; added tags and fusions are not shown.
UniProt P35579: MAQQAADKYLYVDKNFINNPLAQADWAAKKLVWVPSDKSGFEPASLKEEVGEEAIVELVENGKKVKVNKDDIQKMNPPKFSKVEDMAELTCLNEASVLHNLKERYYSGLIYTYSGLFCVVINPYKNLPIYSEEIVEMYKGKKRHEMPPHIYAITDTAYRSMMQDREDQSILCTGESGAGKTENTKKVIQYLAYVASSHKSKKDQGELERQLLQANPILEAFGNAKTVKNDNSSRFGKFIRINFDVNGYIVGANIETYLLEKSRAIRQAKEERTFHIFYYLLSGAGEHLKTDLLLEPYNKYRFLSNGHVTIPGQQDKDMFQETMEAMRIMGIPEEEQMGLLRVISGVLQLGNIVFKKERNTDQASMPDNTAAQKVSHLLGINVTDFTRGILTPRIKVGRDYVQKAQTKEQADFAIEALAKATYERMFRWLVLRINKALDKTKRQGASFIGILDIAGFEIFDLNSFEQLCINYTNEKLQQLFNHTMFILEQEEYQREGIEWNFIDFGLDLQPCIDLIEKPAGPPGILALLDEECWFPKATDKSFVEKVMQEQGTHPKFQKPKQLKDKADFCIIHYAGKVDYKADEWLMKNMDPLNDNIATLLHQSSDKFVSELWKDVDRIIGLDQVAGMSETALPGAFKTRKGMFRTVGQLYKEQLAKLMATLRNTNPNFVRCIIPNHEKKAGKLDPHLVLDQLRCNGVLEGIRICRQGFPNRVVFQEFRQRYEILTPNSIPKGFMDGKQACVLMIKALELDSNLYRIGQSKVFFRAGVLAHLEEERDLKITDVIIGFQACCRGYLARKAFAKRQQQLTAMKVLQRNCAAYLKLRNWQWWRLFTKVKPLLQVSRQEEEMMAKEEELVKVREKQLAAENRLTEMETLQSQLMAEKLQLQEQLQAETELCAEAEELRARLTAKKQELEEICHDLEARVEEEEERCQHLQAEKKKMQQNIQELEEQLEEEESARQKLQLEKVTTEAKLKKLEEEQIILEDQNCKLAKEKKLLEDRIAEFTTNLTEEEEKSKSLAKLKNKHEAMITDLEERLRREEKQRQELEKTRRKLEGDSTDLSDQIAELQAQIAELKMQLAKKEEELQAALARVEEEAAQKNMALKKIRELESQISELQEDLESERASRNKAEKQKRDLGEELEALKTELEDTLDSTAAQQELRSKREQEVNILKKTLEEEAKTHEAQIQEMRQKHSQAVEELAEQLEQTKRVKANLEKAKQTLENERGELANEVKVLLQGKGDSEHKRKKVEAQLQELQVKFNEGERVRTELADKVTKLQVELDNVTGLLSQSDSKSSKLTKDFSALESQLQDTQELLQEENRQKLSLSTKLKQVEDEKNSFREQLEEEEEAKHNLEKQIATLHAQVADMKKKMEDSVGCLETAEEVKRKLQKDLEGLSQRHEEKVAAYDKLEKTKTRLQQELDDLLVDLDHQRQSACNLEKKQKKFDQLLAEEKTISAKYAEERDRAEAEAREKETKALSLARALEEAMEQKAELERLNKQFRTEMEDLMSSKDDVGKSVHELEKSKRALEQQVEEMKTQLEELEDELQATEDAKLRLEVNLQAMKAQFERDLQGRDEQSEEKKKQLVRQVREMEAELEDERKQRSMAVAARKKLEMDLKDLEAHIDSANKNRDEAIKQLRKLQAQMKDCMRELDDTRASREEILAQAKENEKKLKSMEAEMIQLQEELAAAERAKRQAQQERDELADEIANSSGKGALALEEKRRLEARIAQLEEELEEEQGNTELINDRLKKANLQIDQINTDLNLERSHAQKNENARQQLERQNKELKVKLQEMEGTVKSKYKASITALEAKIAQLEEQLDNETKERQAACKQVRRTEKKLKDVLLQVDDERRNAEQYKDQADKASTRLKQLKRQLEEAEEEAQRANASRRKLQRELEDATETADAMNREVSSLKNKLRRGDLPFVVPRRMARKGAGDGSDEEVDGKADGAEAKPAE

Molecular target: T1, Polypeptide N-Acetylgalactosaminyltransferase 5 (UniProt Q7Z7M9)
T1 sequence: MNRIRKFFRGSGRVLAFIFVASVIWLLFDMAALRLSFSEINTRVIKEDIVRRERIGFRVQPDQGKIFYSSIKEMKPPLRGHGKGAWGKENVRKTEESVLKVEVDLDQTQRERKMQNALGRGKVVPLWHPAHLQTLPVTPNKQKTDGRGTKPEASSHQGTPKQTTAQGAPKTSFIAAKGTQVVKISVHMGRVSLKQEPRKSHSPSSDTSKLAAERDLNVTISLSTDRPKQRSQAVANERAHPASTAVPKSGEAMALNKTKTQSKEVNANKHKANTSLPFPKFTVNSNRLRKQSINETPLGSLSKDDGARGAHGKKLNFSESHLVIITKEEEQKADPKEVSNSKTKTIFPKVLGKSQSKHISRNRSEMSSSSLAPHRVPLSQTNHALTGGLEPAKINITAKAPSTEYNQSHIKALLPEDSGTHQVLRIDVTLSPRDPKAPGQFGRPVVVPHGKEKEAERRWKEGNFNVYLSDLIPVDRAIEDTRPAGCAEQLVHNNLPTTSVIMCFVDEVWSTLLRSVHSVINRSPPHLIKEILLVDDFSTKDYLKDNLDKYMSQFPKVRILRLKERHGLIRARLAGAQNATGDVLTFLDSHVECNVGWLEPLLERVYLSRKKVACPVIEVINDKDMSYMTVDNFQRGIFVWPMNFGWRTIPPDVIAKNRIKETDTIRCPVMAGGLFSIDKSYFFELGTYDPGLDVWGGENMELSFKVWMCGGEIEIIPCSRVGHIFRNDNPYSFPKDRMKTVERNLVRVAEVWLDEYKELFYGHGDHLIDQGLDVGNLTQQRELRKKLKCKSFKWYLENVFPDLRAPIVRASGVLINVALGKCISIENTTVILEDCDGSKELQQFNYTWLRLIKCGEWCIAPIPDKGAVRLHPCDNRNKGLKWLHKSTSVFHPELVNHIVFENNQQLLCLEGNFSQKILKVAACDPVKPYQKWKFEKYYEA
Experiment: co-IP; cells lysed in WB IP lysis and extraction buffer with proteinase phosphatase inhibitors; beads incubated with antibodies for 30 min, then with the samples for 1 h at room temperature; western blot; cell line and precipitating antibody not named

For MYH9 (from UniProt P35579 1-1960), the binding was “binds”.
